According to patent US20250263778A1 (Hoffmann-La Roche, published 2025):
Results are given in words; binding and its absence hold for the method and conditions named. Some binding calls cover weakened binding; strength is not graded here.

Amino acid sequences for entries named in this document (tags omitted). Residues count along the entry.
UniProt Q924X6, residues 29-858: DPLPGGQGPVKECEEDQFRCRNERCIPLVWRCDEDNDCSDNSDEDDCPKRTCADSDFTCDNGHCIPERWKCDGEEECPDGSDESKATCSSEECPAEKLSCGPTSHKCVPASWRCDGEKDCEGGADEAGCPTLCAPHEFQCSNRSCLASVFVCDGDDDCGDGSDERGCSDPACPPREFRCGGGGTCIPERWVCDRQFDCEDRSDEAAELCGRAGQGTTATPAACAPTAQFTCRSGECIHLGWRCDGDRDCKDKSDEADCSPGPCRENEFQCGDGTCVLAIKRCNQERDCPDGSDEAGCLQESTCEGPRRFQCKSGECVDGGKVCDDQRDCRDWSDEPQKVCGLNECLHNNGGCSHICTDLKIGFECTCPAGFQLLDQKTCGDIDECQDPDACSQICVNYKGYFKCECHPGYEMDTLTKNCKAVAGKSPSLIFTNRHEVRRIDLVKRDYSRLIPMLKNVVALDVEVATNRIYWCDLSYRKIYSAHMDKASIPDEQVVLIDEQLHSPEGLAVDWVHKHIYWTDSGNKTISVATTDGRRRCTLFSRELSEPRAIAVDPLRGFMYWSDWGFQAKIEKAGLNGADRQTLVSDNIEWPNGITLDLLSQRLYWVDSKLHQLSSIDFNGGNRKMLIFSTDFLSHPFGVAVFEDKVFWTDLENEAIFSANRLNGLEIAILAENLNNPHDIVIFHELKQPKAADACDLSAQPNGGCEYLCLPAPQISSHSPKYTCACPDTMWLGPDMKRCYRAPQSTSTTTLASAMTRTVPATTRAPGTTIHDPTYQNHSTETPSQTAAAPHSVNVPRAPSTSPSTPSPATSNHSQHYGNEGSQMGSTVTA
UniProt Q14114, residues 33-826: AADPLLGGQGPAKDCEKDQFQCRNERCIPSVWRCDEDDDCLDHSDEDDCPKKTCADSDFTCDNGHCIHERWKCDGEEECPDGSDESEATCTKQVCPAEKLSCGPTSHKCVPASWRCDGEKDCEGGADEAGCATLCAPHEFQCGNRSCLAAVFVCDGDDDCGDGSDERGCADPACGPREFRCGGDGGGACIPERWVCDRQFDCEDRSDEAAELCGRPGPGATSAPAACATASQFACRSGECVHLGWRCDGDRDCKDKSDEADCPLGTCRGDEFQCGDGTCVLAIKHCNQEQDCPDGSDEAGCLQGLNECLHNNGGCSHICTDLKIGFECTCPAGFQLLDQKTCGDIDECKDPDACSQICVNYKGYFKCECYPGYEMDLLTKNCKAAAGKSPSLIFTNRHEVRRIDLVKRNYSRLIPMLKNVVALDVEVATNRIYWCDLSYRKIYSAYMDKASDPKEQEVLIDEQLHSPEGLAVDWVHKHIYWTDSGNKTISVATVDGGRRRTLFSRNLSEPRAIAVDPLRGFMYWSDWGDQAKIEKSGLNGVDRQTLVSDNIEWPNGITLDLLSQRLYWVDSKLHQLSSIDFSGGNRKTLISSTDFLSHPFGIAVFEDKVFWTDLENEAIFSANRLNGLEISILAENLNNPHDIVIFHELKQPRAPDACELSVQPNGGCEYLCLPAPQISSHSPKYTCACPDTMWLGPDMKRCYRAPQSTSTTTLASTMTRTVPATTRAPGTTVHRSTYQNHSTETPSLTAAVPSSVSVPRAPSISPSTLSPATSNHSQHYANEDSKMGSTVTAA

Experiments:
[1] = molecular target: T1, murine LRP8, biotinylated (murine, UniProt Q924X6 29-858, limits assumed, biotinylated); assay: ELISA, binding specificity
T1 construct: also called mu-antigen; murine antigen

[2] = molecular target: human LRP8 (Low-density lipoprotein receptor-related protein 8), biotinylated (human) (UniProt Q14114); assay: ELISA, binding specificity

binding [1]: binds
binding [2]: binds
B1: BCC.763 (antibody, V domains shown)
VH: CQSVEESGGRLVTPGTPLTLTCTASGFSLSSYNMNWVRQAPGKGLEWIGYINKGGSAYYASWAKGRFTISRTSTTVDLKMTSPTTEDTATYFCVRSGGGGNLNLWGQGTLVTVSS
VL: AAVLTQTPSPVSAAVGGTVTISCQSSPNILGNYLSWFQQKPGQPPKLLIYYTSTLASGVPSRFKGSGSGTQFTLTISDVQCDDAATYYCLGVYRSDSDNVFGGGTEVVVK
notes: Rabbit IgG, kappa; also called antibody 763
